According to US20230116688A1 (SPLICEBIO S L, published 2023):

Biological target: T1, EGFP-71-CfaC
T1 chain: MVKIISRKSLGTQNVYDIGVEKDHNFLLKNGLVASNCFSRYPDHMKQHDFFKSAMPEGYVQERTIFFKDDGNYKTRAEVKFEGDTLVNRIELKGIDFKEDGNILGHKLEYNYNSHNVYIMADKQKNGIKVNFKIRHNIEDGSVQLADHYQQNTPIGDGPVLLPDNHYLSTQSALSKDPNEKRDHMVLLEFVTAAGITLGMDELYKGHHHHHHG
Assay: cell-based or functional assay

B1: EGFP-71-CfaN (other)
chain: MVSKGEELFTGVVPILVELDGDVNGHKFSVSGEGEGDATYGKLTLKFICTTGKLPVPWPTLVTTLTYGVQCLSYDTEILTVEYGFLPIGKIVEERIECTVYTVDKNGFVYTQPIAQWHNRGEQEVFEYCLEDGSIIRATKDHKFMTTDGQMLPIDEIFERGLDLKQVDGLPGHHHHHHG
Which results are given for B1?
EGFP reconstitution by protein trans-splicing in co-transfected HEK293 cells, fold increase relative to the Npu intein pair: 2.5 fold; Mean Fluorescence Intensity (MFI) of reconstituted EGFP, flow cytometry of co-transfected HEK293 cells, relative to full length EGFP: > 90 % of full length EGFP signal
